Consider 20 molecules from PubChem BioAssay AID256 (DTP/NCI, 2004).

In this assay the test system is CD2F1 mice, L1210 leukemia ip, survival T/C. Description: NCI In Vivo Anticancer Drug Screen. Data for tumor model L1210 Leukemia (intraperitoneal) in CD2F1 (CDF1) mice. The following applies: higher T/C = longer survival. Put shortly: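 Vehicle-treated tumor-bearing mice served as controls (C) for compound-treated mice (T). Reported figure is T divided by C.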
Setting [1] is: T/C endpoint: mean survival time, dose: 100.0 mg/kg/injection, schedule: Q01DX009 (ip), vehicle: saline with Tween-80.
The mark [2] stands for this setting: T/C endpoint: mean survival time, dose: 400.0 mg/kg/injection, schedule: Q04DX003 (ip), vehicle: saline with Tween-80.
Setting [3] is: T/C endpoint: mean survival time, dose: 50.0 mg/kg/injection, schedule: Q01DX009 (ip), vehicle: saline with Tween-80.
[4] abbreviates: T/C endpoint: mean survival time, dose: 200.0 mg/kg/injection, schedule: Q01DX009 (ip), vehicle: saline with Tween-80.

The structures appear in SMILES notation. The list shows only some results of the screen, not a fair sample: it gathers tests that were run many times, whatever their T/C, doses with no T/C, and many T/C values between a quarter and a half above the control. Further doses and runs are listed elsewhere. T/C: endpoint of the treated group in % of that of the vehicle group. Some entries give survivors of the animals treated and no T/C: the source holds a T/C of zero for them, seemingly a mark for toxic or unscored doses. Some survivor counts are full or nearly so, which does not show that the dose was tolerated: the source hardly ever lists a survival T/C far under the control, and the zero likely stands for such cases as well. Survivors were counted at the toxicity check, usually on the fifth day, unless a day is given; later deaths do not show. Schedule codes are those of the source, taken here to give the interval after Q, in days (D) or hours (H), and the number of doses after X. Some entries were tested several times; their values stand side by side, smallest first. For survival time, this PubChem deposit counts one and a half times the control or more as active, and values a quarter to a half above the control carry no call in these data; other NCI protocols may use other cut-offs. Brackets with × count equal records among those shown.

Consider `Cc1nc2c(=O)n(C3OC(CO)C(O)C3O)cnc2o1` (stereo not given), for which, for the setting “T/C endpoint: mean survival time, dose: 200.0 mg/kg/injection, schedule: Q01DX005 (ip), vehicle: saline”, the T/C was 132 % of control.
As for `O=C(COc1ccccc1)N/N=C/c1cccc([N+](=O)[O-])c1`, the survivor count under setting [1] is 6 of 6.
With `S=C(Nc1ccccc1)N1CCC(CCCC2CCN(C(=S)Nc3ccccc3)CC2)CC1`, under setting [2], the survivor count is recorded as 6 of 6.
As for `COCS(=O)[O-].[C-]#[O+].[C-]#[O+].[Fe+6].[c-]1[c-][c-][cH-][c-]1`, the survivor count reads like this: (T/C endpoint: mean survival time, dose: 100.0 mg/kg/injection, schedule: Q04DX002 (ip), vehicle: saline) 0 of 3; (T/C endpoint: mean survival time, dose: 200.0 mg/kg/injection, schedule: Q04DX002 (ip), vehicle: saline) 0 of 3; (T/C endpoint: mean survival time, dose: 400.0 mg/kg/injection, schedule: Q04DX002 (ip), vehicle: saline) 0 of 3.
With `COc1cccc(C(=O)C=C(C(F)(F)F)C(F)(F)F)c1`, the survivor count under setting [3] is recorded as 0 of 6.
For `CC1NCCOC1c1ccccc1` (stereo not given), under “T/C endpoint: mean survival time, dose: 400.0 mg/kg/injection, schedule: Q04DX003 (ip), vehicle: saline”, the survivor count is 0 of 6.
As for `Cn1cnc([N+](=O)[O-])c1Sc1nc(N)nc2nc[nH]c12`, the T/C by setting is: (T/C endpoint: mean survival time, dose: 5.0 mg/kg/injection, schedule: Q01DX007 (ip), vehicle: Klucel (hydroxypropylcellulose) (HPC)) 136 % of control; (T/C endpoint: mean survival time, dose: 5.0 mg/kg/injection, schedule: Q01DX009 (ip), vehicle: Klucel (hydroxypropylcellulose) (HPC)) 141 % of control; (T/C endpoint: mean survival time, dose: 5.0 mg/kg/injection, schedule: Q04DX003 (ip), vehicle: Klucel (hydroxypropylcellulose) (HPC)) 149 % of control; (T/C endpoint: mean survival time, dose: 10.0 mg/kg/injection, schedule: Q01DX009 (ip), vehicle: Klucel (hydroxypropylcellulose) (HPC)) 141 % of control; (T/C endpoint: mean survival time, dose: 10.0 mg/kg/injection, schedule: Q04DX003 (ip), vehicle: Klucel (hydroxypropylcellulose) (HPC)) 143 % of control; (T/C endpoint: mean survival time, dose: 20.0 mg/kg/injection, schedule: Q01DX009 (ip), vehicle: Klucel (hydroxypropylcellulose) (HPC)) 131 % of control. In addition, the T/C (T/C endpoint: mean survival time, dose: 20.0 mg/kg/injection, schedule: Q04DX003 (ip), vehicle: Klucel (hydroxypropylcellulose) (HPC)) is 149 % of control.
With `CCCCCCCCCCCCNCCC(=O)O`, the survivor count (T/C endpoint: mean survival time, dose: 300.0 mg/kg/injection, schedule: Q01DX001 (ip), vehicle: saline) is listed as 0 of 6.
As to `ClC1CCC[N-]C1.ClC1CCC[N-]C1.[Cl][Pt+2]([Cl])([Cl])[Cl]` (stereo not given), the survivor count is 6 of 6 (T/C endpoint: mean survival time, dose: 12.5 mg/kg/injection, schedule: Q01DX009 (ip), vehicle: saline with Tween-80); 6 of 6 (T/C endpoint: mean survival time, dose: 25.0 mg/kg/injection, schedule: Q01DX009 (ip), vehicle: saline with Tween-80); 1 of 6 under setting [3]; 0 of 6 under setting [1]; 0 of 6 under setting [4].
For `O=S(CC(O)c1ccccc1)c1ccccc1` (stereo not given), the survivor count under setting [2] is on record as 5 of 6.
Regarding `CN(C)c1ccc(Nc2c3ccccc3nc3ccccc23)cc1`, the T/C runs as follows: (T/C endpoint: mean survival time, dose: 60.0 mg/kg/injection, schedule: Q03HX040 (oral), vehicle: saline) 133 % of control; (T/C endpoint: mean survival time, dose: 150.0 mg/kg/injection, schedule: Q03HX016 (oral), vehicle: saline) 142 % of control; (T/C endpoint: mean survival time, dose: 150.0 mg/kg/injection, schedule: Q03HX024 (oral), vehicle: saline) 132 % of control; (T/C endpoint: median survival time, dose: 22.5 mg/kg/injection, schedule: Q01DX009 (ip), vehicle: saline) 142 % of control. Besides, the survivor count is reported as 8 of 10 (T/C endpoint: mean survival time, dose: 240.0 mg/kg/injection, schedule: Q03HX040 (oral), vehicle: saline); 6 of 10 (T/C endpoint: mean survival time, dose: 300.0 mg/kg/injection, schedule: Q03HX008 (oral), vehicle: saline); 8 of 10 (T/C endpoint: mean survival time, dose: 300.0 mg/kg/injection, schedule: Q03HX024 (oral), vehicle: saline); 0 of 10 (T/C endpoint: mean survival time, dose: 480.0 mg/kg/injection, schedule: Q03HX040 (oral), vehicle: saline); 0 of 10 (T/C endpoint: mean survival time, dose: 600.0 mg/kg/injection, schedule: Q03HX008 (oral), vehicle: saline); 0 of 10 (T/C endpoint: mean survival time, dose: 600.0 mg/kg/injection, schedule: Q03HX016 (oral), vehicle: saline). The survivor count was 0 of 10 (T/C endpoint: mean survival time, dose: 600.0 mg/kg/injection, schedule: Q03HX024 (oral), vehicle: saline); 0 of 10 (T/C endpoint: mean survival time, dose: 1200.0 mg/kg/injection, schedule: Q03HX008 (oral), vehicle: saline); 0 of 10 (T/C endpoint: mean survival time, dose: 1200.0 mg/kg/injection, schedule: Q03HX016 (oral), vehicle: saline); 0 of 10 (T/C endpoint: mean survival time, dose: 1200.0 mg/kg/injection, schedule: Q03HX024 (oral), vehicle: saline); 0 of 6 and 1 of 6 (T/C endpoint: median survival time, dose: 180.0 mg/kg/injection, schedule: Q01DX009 (ip), vehicle: saline).
As to `CC(=O)OCC1OC(N2C(=O)/C(=C/c3ccc(Cl)cc3)SC2=S)C(OC(C)=O)C(OC(C)=O)C1OC(C)=O` (stereo not given), the survivor count (T/C endpoint: mean survival time, dose: 50.0 mg/kg/injection, schedule: Q01DX005 (ip), vehicle: distilled water + Tween-80) is 3 of 6.
As to `O=C(NNC(=O)c1cccnc1)Nc1cccc(Cl)c1Cl`, the survivor count under setting [1] is on record as 3 of 3.
As to `O=P(=O)OP(=O)=O.[O]=[W](=[O])=[O]`, the survivor count is, setting by setting: under setting [4], 3 of 6; (T/C endpoint: mean survival time, dose: 400.0 mg/kg/injection, schedule: Q01DX009 (ip), vehicle: saline with Tween-80) 0 of 6.
`CC1=CC(=Nc2ccc(N(CCCl)CCCl)cc2)C=C(C)C1=O`: the T/C was 128 % of control (T/C endpoint: mean survival time, dose: 6.25 mg/kg/injection, schedule: Q01DX009 (ip), vehicle: Klucel (hydroxypropylcellulose) (HPC)); 110, 114, 120, 127 % of control (T/C endpoint: mean survival time, dose: 12.5 mg/kg/injection, schedule: Q01DX009 (ip), vehicle: Klucel (hydroxypropylcellulose) (HPC)); 127, 132 (2×), 134 % of control (T/C endpoint: mean survival time, dose: 25.0 mg/kg/injection, schedule: Q01DX009 (ip), vehicle: Klucel (hydroxypropylcellulose) (HPC)); 97, 110 (2×), 125, 137 % of control (T/C endpoint: mean survival time, dose: 50.0 mg/kg/injection, schedule: Q01DX009 (ip), vehicle: Klucel (hydroxypropylcellulose) (HPC)). Moreover, the survivor count is, setting by setting: (T/C endpoint: mean survival time, dose: 100.0 mg/kg/injection, schedule: Q01DX009 (ip), vehicle: Klucel (hydroxypropylcellulose) (HPC)) 3 of 3; (T/C endpoint: mean survival time, dose: 200.0 mg/kg/injection, schedule: Q01DX009 (ip), vehicle: Klucel (hydroxypropylcellulose) (HPC)) 3 of 3.
With `O=NN(CCF)C(=O)NC1CCCCC1`, the T/C (T/C endpoint: median survival time, dose: 20.0 mg/kg/injection, schedule: Q04DX002 (ip), vehicle: saline) is 136 % of control. Moreover, the survivor count is listed as 3 of 6 (T/C endpoint: median survival time, dose: 160.0 mg/kg/injection, schedule: Q04DX002 (ip), vehicle: saline) and 2 of 6 (T/C endpoint: median survival time, dose: 320.0 mg/kg/injection, schedule: Q04DX002 (ip), vehicle: saline).
In the case of `CN(C)/N=N/c1[nH]cnc1C(N)=O.[Cl][Cu][Cl]`, the survivor count by setting is: (T/C endpoint: mean survival time, dose: 25.0 mg/kg/injection, schedule: Q04DX003 (ip), vehicle: water) 3 of 6; (T/C endpoint: mean survival time, dose: 64.0 mg/kg/injection, schedule: Q01DX001 (ip), vehicle: distilled water + Tween-80) 0 of 6.
Consider `Cc1cc(C)c(CCl)cc1CCl`, for which the survivor count reads like this: under setting [3], 0 of 6; (T/C endpoint: mean survival time, dose: 100.0 mg/kg/injection, schedule: Q04DX003 (ip), vehicle: saline with Tween-80) 0 of 6; (T/C endpoint: mean survival time, dose: 200.0 mg/kg/injection, schedule: Q04DX003 (ip), vehicle: saline with Tween-80) 0 of 6.
As for `O=[N+]([O-])c1c[n+]([O-])ccc1Cl`, the survivor count is, setting by setting: (T/C endpoint: mean survival time, dose: 20.0 mg/kg/injection, schedule: Q01DX001 (ip), vehicle: saline) 4 of 6; (T/C endpoint: mean survival time, dose: 40.0 mg/kg/injection, schedule: Q01DX001 (ip), vehicle: saline) 5 of 6; (T/C endpoint: mean survival time, dose: 80.0 mg/kg/injection, schedule: Q01DX001 (ip), vehicle: saline) 0 of 6.
Turning to `COc1cccc(CN2CCCNCC2)c1`, the survivor count runs as follows: (T/C endpoint: mean survival time, dose: 200.0 mg/kg/injection, schedule: Q01DX005 (ip), vehicle: water) 4 of 6; (T/C endpoint: mean survival time, dose: 400.0 mg/kg/injection, schedule: Q01DX005 (ip), vehicle: water) 0 of 6.
